Measurements as given in US20200306340A1 (ACCELERON PHARMA, published 2020).
Results are given in words; binding and its absence hold for the method and conditions named. Some entries that bind do so weakly or less than the wild type. Sequences can lack the tags named with a protein.

Assays:
BMP9 = target: T1, BMP9 (UniProt Q9UK05 320-429); test: Biacore SPR
T1 construct: also called GDF2
T1 sequence (looked up): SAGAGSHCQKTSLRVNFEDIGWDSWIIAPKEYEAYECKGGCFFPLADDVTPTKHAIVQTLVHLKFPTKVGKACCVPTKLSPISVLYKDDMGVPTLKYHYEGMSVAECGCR

GDF8 [1] = target: T2, GDF8 (UniProt O14793 267-375); test: Biacore SPR
T2 construct: also called myostatin
T2 sequence (looked up): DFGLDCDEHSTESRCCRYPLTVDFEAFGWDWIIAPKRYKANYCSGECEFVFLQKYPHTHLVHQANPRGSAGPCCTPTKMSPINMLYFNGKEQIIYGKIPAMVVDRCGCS

BMP6 [2] = target: T3, BMP6 (UniProt P22004 382-513, limits assumed); test: Biacore SPR
T3 sequence (looked up): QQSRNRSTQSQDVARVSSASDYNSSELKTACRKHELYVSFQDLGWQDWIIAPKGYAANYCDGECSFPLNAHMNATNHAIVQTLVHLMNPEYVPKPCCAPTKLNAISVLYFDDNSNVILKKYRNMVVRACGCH

GDF11 [3] = target: T4, GDF11 (UniProt O95390 299-407); test: Biacore SPR
T4 sequence (looked up): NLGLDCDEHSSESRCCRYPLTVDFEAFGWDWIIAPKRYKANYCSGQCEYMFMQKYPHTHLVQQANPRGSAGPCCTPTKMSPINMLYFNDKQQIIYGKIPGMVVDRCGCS

activin B = target: T5, activin B (UniProt P09529 293-407); test: Biacore SPR (binding data referred to)
T5 sequence (looked up): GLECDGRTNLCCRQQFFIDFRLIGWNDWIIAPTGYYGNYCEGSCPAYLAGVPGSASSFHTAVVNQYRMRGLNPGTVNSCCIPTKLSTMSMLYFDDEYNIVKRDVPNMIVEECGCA

GDF8 [4] = target: T2, GDF8; test: Biacore SPR (binding data referred to)
GDF11 [5] = target: T4, GDF11; test: Biacore SPR (binding data referred to)
GDF8 [6] = target: T2, GDF8; test: comparative ligand binding data, ligands ranked by koff (legend of FIG. 19)
BMP6 [7] = target: T3, BMP6; test: as above
GDF11 [8] = target: T4, GDF11; test: as above

Measured: binding

B1: ActRIIB-Fc homodimer (Fc fusion, not shown: a dimerising Fc or GST)
chain: GRGEAETRECIYYNANWELERTNQSGLERCEGEQDKRLHCYASWRNSSGTIELVKKGCWLDDFNCYDRQECVATEENPQVYFCCCEGNFCNERFTHLPEAGGPEVTYEPPPTAPT
binds: BMP9 | GDF8 [1] | BMP6 [2] | GDF11 [3] | activin B | GDF8 [4] | GDF11 [5] | GDF8 [6] | BMP6 [7] | GDF11 [8]
